Source: PMC7931601
These are yes or no findings as the source states them, for the method shown. In cells and extracts the contact can be indirect. Some binding calls cover weakened binding; strength is not graded here.

The chains behind the UniProt entries cited, without tags or fusion partners. Residues count along the entry.
UniProt P43220, residues 24-463: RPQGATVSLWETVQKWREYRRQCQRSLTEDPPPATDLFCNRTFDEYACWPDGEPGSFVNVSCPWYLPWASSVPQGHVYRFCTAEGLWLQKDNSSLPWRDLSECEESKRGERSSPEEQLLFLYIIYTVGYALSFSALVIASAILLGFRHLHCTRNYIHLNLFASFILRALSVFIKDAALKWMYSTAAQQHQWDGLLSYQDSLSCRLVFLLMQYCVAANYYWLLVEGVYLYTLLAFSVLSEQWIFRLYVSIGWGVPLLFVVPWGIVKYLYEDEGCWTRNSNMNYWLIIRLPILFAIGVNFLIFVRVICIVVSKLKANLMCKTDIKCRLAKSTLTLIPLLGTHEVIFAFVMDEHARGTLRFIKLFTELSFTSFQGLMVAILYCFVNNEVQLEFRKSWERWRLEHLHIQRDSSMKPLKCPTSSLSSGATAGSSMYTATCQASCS
UniProt P32121: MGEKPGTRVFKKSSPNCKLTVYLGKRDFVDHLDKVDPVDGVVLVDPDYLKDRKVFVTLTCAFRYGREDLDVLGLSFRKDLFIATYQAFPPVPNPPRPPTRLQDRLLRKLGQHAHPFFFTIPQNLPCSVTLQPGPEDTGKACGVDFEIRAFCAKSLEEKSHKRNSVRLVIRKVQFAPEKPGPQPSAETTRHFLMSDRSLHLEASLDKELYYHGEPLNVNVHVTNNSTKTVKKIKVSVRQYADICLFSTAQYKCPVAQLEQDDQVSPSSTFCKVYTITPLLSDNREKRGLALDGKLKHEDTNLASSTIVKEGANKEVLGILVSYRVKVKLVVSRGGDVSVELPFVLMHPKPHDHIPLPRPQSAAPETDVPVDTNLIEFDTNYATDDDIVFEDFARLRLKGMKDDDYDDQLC

Biological target: GLP-1R-Sm-BiT (UniProt P43220)
Assay: split reporter; NanoBiT between β-arrestin-2-Lg-BiT and GLP-1R-Sm-BiT in live Min6B1 cells, luminescence for 30 min after 100 nM Exendin-4; cells with siSc or siGRK2 (48 h), or with Compound 101 (30 μM)

“β-arrestin-2-Lg-BiT (from UniProt P32121 1-409)” was tested, and the binding was “binds”.
